# Percent effect of library compounds

Amino acid sequences for entries named in this document (tags omitted). Residues count along the entry.
UniProt Q8IDJ8, 1-583: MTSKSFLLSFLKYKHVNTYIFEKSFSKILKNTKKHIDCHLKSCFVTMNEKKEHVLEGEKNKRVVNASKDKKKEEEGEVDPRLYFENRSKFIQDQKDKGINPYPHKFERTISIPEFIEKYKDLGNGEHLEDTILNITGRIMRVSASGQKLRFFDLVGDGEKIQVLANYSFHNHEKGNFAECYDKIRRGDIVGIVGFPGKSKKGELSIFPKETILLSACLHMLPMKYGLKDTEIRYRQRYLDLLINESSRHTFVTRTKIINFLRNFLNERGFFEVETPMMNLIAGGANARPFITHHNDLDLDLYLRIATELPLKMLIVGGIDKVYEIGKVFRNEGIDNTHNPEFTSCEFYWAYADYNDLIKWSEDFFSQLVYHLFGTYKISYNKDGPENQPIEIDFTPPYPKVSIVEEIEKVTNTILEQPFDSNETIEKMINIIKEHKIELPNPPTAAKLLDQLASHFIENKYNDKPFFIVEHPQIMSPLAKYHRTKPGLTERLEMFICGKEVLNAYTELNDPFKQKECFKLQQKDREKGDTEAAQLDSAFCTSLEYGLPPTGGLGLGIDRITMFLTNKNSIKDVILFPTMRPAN

Data taken from ChEMBL document CHEMBL3988442, “University of Dundee, Small-Polar-MMV Screening Library” (2021).

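Lysine-tRNA ligase, Plasmodium falciparum 3D7 (UniProt Q8IDJ8). Enzyme assay of the cytosolic lysyl-tRNA synthetase in 384-well plates, read by luminescence. Tested at 30 µM. Higher reads as stronger inhibition, judged from the few compounds that gave an IC50. Size under these conditions: about 69,000 compounds, about 49 of them at 50% or above in at least one test.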

Values are the deposited “Percent Effect”, in %.
The record does not define 0% and 100%; most values in the screen are far below 50% and negative numbers occur (in some assays of this library far below -100).
The compounds are a random part of those screened.

SMILES: CN1CCCC1c1cncc(C(=O)NCC2CC2)n1 (stereo not drawn)
percent effect: 0.658

SMILES: Cc1nccn1CCCn1c(=O)cnc2ccccc21
percent effect: -0.947

SMILES: Cc1nn2cccnc2c1C(=O)NCc1ccccc1OCC1CC1
percent effect: 2.236

SMILES: CN(Cc1cccc2ncccc12)C(=O)CCC(F)(F)F
percent effect: 1.789

SMILES: COc1ccc2oc(C(C)NC(=O)NCc3noc(C)n3)c(C)c2c1 (stereo not drawn)
percent effect: 6.201

SMILES: CN(C)CCN1CCN(C)c2nc(-c3ccccc3)ncc2C1=O
percent effect: 2.76

SMILES: Cc1ccc(-c2nc(CNC3CCc4ncnn4C3)co2)c(C)c1 (stereo not drawn)
percent effect: 0.9622

SMILES: COc1ccc(C)cc1S(=O)(=O)NCCC(O)c1ccccc1 (stereo not drawn)
percent effect: 8.243

SMILES: COCCN1CCC(NC(=O)Cn2cc(C)c3ccccc32)CC1
percent effect: 1.314

SMILES: COCCO[C@H]1CCN(C(=O)c2cccnc2)[C@H]1Cc1cnn(C)c1
percent effect: 6.629

SMILES: Cc1cc(C(=O)O)ccc1NS(=O)(=O)c1c(C)nn(C(C)C)c1C
percent effect: 1.675

SMILES: Cc1[nH]ccc1C(=O)N1C[C@H]2CC[C@@H]1CN(S(=O)(=O)N(C)C)C2
percent effect: 0.0245

SMILES: Nc1ncccc1C(=O)NCc1cccc(Br)c1
percent effect: 2.684

SMILES: Cc1ccc(C(=O)NS(C)(=O)=O)cc1-n1cccc1
percent effect: -2.72

SMILES: CCc1nc(-c2noc3ccc(C(=O)N(C)CCOC)cc23)co1
percent effect: 4.717

SMILES: O=S(=O)(C1CC1)N1CCc2c(CN3CCOCC3)cncc2C1
percent effect: 4.01

SMILES: CCn1ccc(-c2cc(NCCCOc3cccc(C)c3)nc(C)n2)n1
percent effect: 1.937

SMILES: CCN(Cc1noc(C)n1)C(=O)CCn1c(C)cc2ccccc21
percent effect: 1.813

SMILES: O=C1N(Cc2ccc(F)c(F)c2)CCCC12CCN(C1CCCCC1)C2 (stereo not drawn)
percent effect: 0.6808

SMILES: COc1ccccc1CC(=O)N1CCCC1Cn1nc(C)cc1C (stereo not drawn)
percent effect: 1.475

SMILES: COCCC1(C(=O)O)CCCN(c2cc(C)c3ccccc3n2)C1 (stereo not drawn)
percent effect: 2.719

SMILES: O=C(CCCN1CCCCC1)N1CCC(c2nnc[nH]2)CC1
percent effect: 3.985

SMILES: CC(C)C(NC(=O)Cc1ccccc1)C(=O)NCc1ccc(O)nc1 (stereo not drawn)
percent effect: -0.3138

SMILES: O=C(O)[C@]12CCCN(Cc3cccnc3)[C@@H]1CCN(c1cnccn1)C2
percent effect: 0.7118

SMILES: O=C(NCC1(O)CCSC1)c1ccn(-c2ccccc2F)n1 (stereo not drawn)
percent effect: 3.121

SMILES: COc1cccc2c1OCC(NCc1cnn(-c3ccccc3)c1)C2 (stereo not drawn)
percent effect: -6.992

SMILES: COC1CC2(CCN(Cc3nccn3C)CC2)C1
percent effect: 1.756

SMILES: CN(C)CC(C)(C)Cn1cnc(-c2ccccc2)c1-c1ncc[nH]1
percent effect: -3.521

SMILES: CS(=O)(=O)Nc1ccn(Cc2ccc(Br)cc2)n1
percent effect: 2.461

SMILES: Cc1noc(C)c1CN1CCN(C(=O)C(C(C)C)n2cncn2)CC1 (stereo not drawn)
percent effect: 0.04787

SMILES: Cc1ncsc1CN1CCn2c(COCC3CC3)cnc2C1C (stereo not drawn)
percent effect: -0.1597

SMILES: CC(c1cccc(O)c1)N(C)S(=O)(=O)c1cccnc1 (stereo not drawn)
percent effect: 1.121

SMILES: c1ccc(C2=NOC3(CCN(Cc4c[nH]c5ccccc45)CC3)C2)cc1
percent effect: 2.077

SMILES: CCc1nn(C)c(Cl)c1CN(CC)Cc1cnn(CC)c1
percent effect: 7.417

SMILES: Cc1nc(-c2ccccc2)ccc1C(=O)N1CCn2c(C)nnc2C1
percent effect: 4.309

Once more, the final 3:

c1ccc(C2=NOC3(CCN(Cc4c[nH]c5ccccc45)CC3)C2)cc1 read 2.077%.
CCc1nn(C)c(Cl)c1CN(CC)Cc1cnn(CC)c1 read 7.417%.
Cc1nc(-c2ccccc2)ccc1C(=O)N1CCn2c(C)nnc2C1 read 4.309%.